Assay results reported in the supplement of paper PMC12889115.
The other results are listed elsewhere or left out. These are raw signals, not scaled to a control.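 Primary screen: polymyxin B was added at a level permeabilizing Salmonella outer membranes while sparing inner membranes. DMSO wells, both with and without polymyxin B, established maximum growth. Plate-to-plate variation meant each plate was ranked on its own, and the lowest-OD600 compounds were selected as hits.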

Test system: Salmonella enterica serovar Typhimurium SL1344
Assay: bacterial growth OD600 after 18 h with compound and polymyxin B; higher = more bacterial growth (less inhibition)
Settings: 50 µM, Mueller-Hinton broth

Row | Compound | bacterial growth OD600 (polymyxin B 0.75 µg/mL) | bacterial growth OD600 (polymyxin B 1 µg/mL)
1 | CC1CN(CC(=O)NCc2cc(F)ccc2F)Cc2cc(Cl)ccc2O1 (stereo unspecified) | 0.007 | 
2 | O=C(CN1CCCCC1)N1CCc2onc(-c3cccc(F)c3)c2C1 | 0.857 | 
3 | CCc1cc(C(=O)NCc2c(C)ncc3c2CCN(C(=O)c2cccc(-c4ccco4)c2)C3)no1 | 0.835 | 
4 | COc1ccc(-c2nc(CN3CCN(Cc4ccc(F)cc4)C(=O)C3)c(C)o2)c(C)c1C | 0.003 | 
5 | CCN1CCCC1CNC(=O)CCC1CCN(Cc2cccc(C(C)=O)c2)CC1 (stereo unspecified) |  | 0.915
6 | Cc1noc(C)c1C(=O)N1CCC2(CCCN(Cc3ccccc3F)C2=O)C1 (stereo unspecified) |  | 1.15
7 | CCOCC(O)CNc1nncc(-c2ccc(C)o2)n1 (stereo unspecified) | 0.88 | 
8 | CN(C(=O)c1ccco1)C(Cc1ccccc1Cl)C1CCN(Cc2cccc3c2OCO3)CC1 (stereo unspecified) | 0.737 | 
9 | CC(C)C1=NOC(C(=O)N2CCC(CCC(=O)Nc3ccccc3)CC2)C1 (stereo unspecified) |  | 0.991
10 | Cc1cc(C)n(CC(C)NC(=O)c2cn(Cc3ccccc3Cl)nn2)n1 (stereo unspecified) |  | 0.866
11 | CCn1cc(CNCc2cccnc2Oc2ccc(F)c(F)c2)cn1 | 0.8 | 
12 | O=C(CCCc1ccccc1)Nc1cccc(N2CCC(NC(c3ccccn3)C(F)(F)F)CC2)c1 (stereo unspecified) | 0.552 | 
13 | COCc1ccc(C(=O)NC(C)c2cnn(-c3cccc(F)c3)c2C)s1 (stereo unspecified) |  | 0.872
14 | COc1cccc(-c2ccc(NC(=O)C3CCCN(Cc4ccccn4)C3)cc2)c1 (stereo unspecified) |  | 0.845
15 | Cc1nc(CN(C)c2nc3nonc3nc2NCc2cccs2)cs1 |  | 0.817
16 | CC(C)c1ccc(NC2CCCN(C(=O)CCC(F)(F)F)C2)cc1 (stereo unspecified) |  | 0.77
17 | COc1cc(CC2(CCC(=O)NC(c3ccncc3)c3ccc(C)cc3)CCC(=O)N2)ccc1F (stereo unspecified) | 0.929 | 
18 | OCC1(CCCc2ccccc2)CCCN(Cc2ccc3nsnc3c2)C1 (stereo unspecified) | 0.612 | 
19 | CCNC(=O)c1cn(CCc2ccccc2)cc(C(=O)N2CCCC(c3ccccc3)C2)c1=O (stereo unspecified) | 0.752 | 
20 | CCOC(=O)C1(CCOc2ccccc2)CCN(Cc2ccc(O)c(OC)c2)CC1 |  | 0.97
21 | CCCN(Cc1nc(Cc2ccccc2Cl)no1)CC1CC1 |  | 0.776

2 compounds picked at random from the list so far, as already listed:
Row | Compound | bacterial growth OD600 (polymyxin B 0.75 µg/mL) | bacterial growth OD600 (polymyxin B 1 µg/mL)
1 | CC1CN(CC(=O)NCc2cc(F)ccc2F)Cc2cc(Cl)ccc2O1 (stereo unspecified) | 0.007 | 
14 | COc1cccc(-c2ccc(NC(=O)C3CCCN(Cc4ccccn4)C3)cc2)c1 (stereo unspecified) |  | 0.845
